These are yes or no findings as the source states them, for the method shown. Some binding calls cover weakened binding; strength is not graded here.

Amino acid sequences for entries named in this document (tags omitted).
UniProt P10824: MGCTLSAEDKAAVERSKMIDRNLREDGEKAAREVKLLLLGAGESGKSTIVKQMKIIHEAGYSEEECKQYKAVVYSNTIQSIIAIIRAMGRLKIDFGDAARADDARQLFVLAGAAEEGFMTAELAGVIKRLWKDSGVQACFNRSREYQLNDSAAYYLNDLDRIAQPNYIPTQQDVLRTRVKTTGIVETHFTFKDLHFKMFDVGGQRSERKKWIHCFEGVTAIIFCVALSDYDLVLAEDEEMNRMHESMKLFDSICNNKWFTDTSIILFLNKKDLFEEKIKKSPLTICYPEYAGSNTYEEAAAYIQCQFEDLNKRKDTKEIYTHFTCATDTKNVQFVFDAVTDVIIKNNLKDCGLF

This test concerns the target Recombinant Gαi1 (heterotrimeric G protein alpha subunit i1) (rat) (UniProt P10824). Put plainly: size exclusion chromatography of the RIC8A/Gαi1 complex.

B1: Recombinant rat RIC8A (resistance to inhibitors of cholinesterase 8A) (protein, UniProt Q80ZG1 1-491, looked up)
chain: MEPRAVADALETGEEDAVTEALRSFNREHSQSFTFDDAQQEDRKRLAKLLVSVLEQGLSPKHRVTWLQTIRILSRDRSCLDSFASRQSLHALACYADIAISEEPIPQPPDMDVLLESLKCLCNLVLSSPTAQMLAAEARLVVRLAERVGLYRKRSYPHEVQFFDLRLLFLLTALRTDVRQQLFQELHGVRLLTDALELTLGVAPKENPLVILPAQETERAMEILKVLFNITYDSVKREVDEEDAALYRYLGTLLRHCVMADAAGDRTEEFHGHTVNLLGNLPLKCLDVLLALELHEGSLEFMGVNMDVINALLAFLEKRLHQTHRLKECVAPVLSVLTECARMHRPARKFLKAQVLPPLRDVRTRPEVGDLLRNKLVRLMTHLDTDVKRVAAEFLFVLCSESVPRFIKYTGYGNAAGLLAARGLMAGGRPEGQYSEDEDTDTEEYREAKASINPVTGRVEEKPPNPMEGMTEEQKEHEAMKLVNMFDKLSR
B1: the binding entry was “binds”.

Values taken from patent publication US20170160285A1 (VIB VZW, published 2017).
